Laboratory results: PubChem BioAssay AID216 (DTP/NCI, 2004)
The list is a part of this screen's results and no random one: it gathers tests that were run many times, whatever their T/C, doses with no T/C, and many T/C values between a quarter and a half above the control. Further doses and runs are listed elsewhere. T/C: endpoint of the treated group in % of that of the vehicle group. Some doses have a count of surviving animals in place of a T/C: the source files T/C as zero there, which appears to mark a toxic dose or a test without result, not a measured value. Some survivor counts are full or nearly so, which does not show that the dose was tolerated: the source hardly ever lists a survival T/C far under the control, and the zero likely stands for such cases as well. Survivors were counted at the toxicity check, usually on the fifth day, unless a day is given; later deaths do not show. Schedules are NCI's codes, read here as Q, the interval in days (D) or hours (H), X, the number of doses. Some entries hold several experiments; their values stand side by side, smallest first. Some schedules carry Z or #; the key to these is not given. Some structures stand for samples that the source files as different forms (salt, stereo form or complex); doses refer to the form tested. Where survival is the endpoint, the PubChem record calls one and a half times the control and up active, and a quarter to a half above the control has no call in these data; cut-offs in other NCI protocols can differ.

System: BDF1 mice, P288 leukemia ip, survival T/C
Test: NCI In Vivo Anticancer Drug Screen. Data for tumor model P288 Lymphocytic Leukemia (intraperitoneal) in B6D2F1 (BDF1) mice
Conditions: T/C endpoint: survival time, mean or median, higher T/C = longer survival
Experimental: The antitumor activity of compounds was measured in mice bearing transplantable tumors. Survival or tumor size were measured and the results are expressed as the measurement made in the treated group (T) divided by the measurement made in the vehicle treated control group (C). The tumor model used in this assay is P288 Lymphocytic Leukemia (intraperitoneal) in B6D2F1 (BDF1) mice

[1] = dose: 50.0 mg/kg/injection, schedule: Q01DX Z (ip), vehicle: carboxymethylcellulose (CMC)

NC(Cc1ccc(N(CCCl)CCCl)cc1)C(=O)O (stereo unspecified)
survivor count (dose: 1.25 mg/kg/injection, schedule: Q01DX Z (ip), vehicle: carboxymethylcellulose (CMC)): 6 of 6 | T/C (dose: 2.5 mg/kg/injection, schedule: Q01DX010 (ip), vehicle: saline): 125 and 130 % of control | survivor count (dose: 2.5 mg/kg/injection, schedule: Q01DX Z (ip), vehicle: carboxymethylcellulose (CMC)): 6 of 6 | survivor count (dose: 5.0 mg/kg/injection, schedule: Q01DX Z (ip), vehicle: carboxymethylcellulose (CMC)): 6 of 6 | T/C (dose: 8.0 mg/kg/injection, schedule: Q01DX010 (ip), vehicle: saline): 127 % of control | T/C (dose: 10.0 mg/kg/injection, schedule: Q01DX010 (ip), vehicle: saline): 130 % of control | survivor count (dose: 10.0 mg/kg/injection, schedule: Q01DX Z (ip), vehicle: carboxymethylcellulose (CMC)): 6 of 6 | survivor count (dose: 20.0 mg/kg/injection, schedule: Q01DX010 (ip), vehicle: saline): 6 of 6 | survivor count (dose: 20.0 mg/kg/injection, schedule: Q01DX Z (ip), vehicle: carboxymethylcellulose (CMC)): 5 of 6 and 6 of 6

NC(CCSCc1ccc(N(CCCl)CCCl)cc1)C(=O)O (stereo unspecified)
T/C (dose: 36.0 mg/kg/injection, schedule: Q01DX010 (ip), vehicle: saline): 144 % of control | T/C (dose: 120.0 mg/kg/injection, schedule: Q01DX010 (ip), vehicle: saline): 138 % of control

N#Cc1cn(C2OC(CO)C(O)C2O)c2ncnc(N)c12 (stereo unspecified)
T/C (dose: 0.06 mg/kg/injection, schedule: Q01DX Z (ip), vehicle: carboxymethylcellulose (CMC)): 128 % of control | survivor count (dose: 2000.0 micrograms/kg/injection, schedule: Q01DX Z (ip), vehicle: carboxymethylcellulose (CMC)): 2 of 6

CS(=O)(=O)OCCCl
survivor count (dose: 25.0 mg/kg/injection, schedule: Q01DX Z (ip), vehicle: carboxymethylcellulose (CMC)): 6 of 6 | survivor count [1]: 6 of 6 | survivor count (dose: 100.0 mg/kg/injection, schedule: Q01DX Z (ip), vehicle: carboxymethylcellulose (CMC)): 5 of 6

CS(=O)(=O)OCCCCOS(C)(=O)=O
T/C (dose: 6.25 mg/kg/injection, schedule: Q01DX010 (ip), vehicle: saline): 131 % of control

C[n+]1c2ccccc2nc2c(N)cc(N)cc21
survivor count [1]: 2 of 6

N=[N+]=CC(=O)OCC(N)C(=O)O (stereo unspecified)
T/C (dose: 25.0 mg/kg/injection, schedule: Q01DX010 (ip), vehicle: saline): 133 % of control

Cc1cc(N(CCCl)CCCl)ccc1N=Nc1ccccc1C(=O)O
survivor count (dose: 7.5 mg/kg/injection, schedule: Q01DX Z (ip), vehicle: carboxymethylcellulose (CMC)): 6 of 6 | survivor count (dose: 15.0 mg/kg/injection, schedule: Q01DX Z (ip), vehicle: carboxymethylcellulose (CMC)): 6 of 6 | survivor count (dose: 30.0 mg/kg/injection, schedule: Q01DX Z (ip), vehicle: carboxymethylcellulose (CMC)): 6 of 6 | survivor count (dose: 40.0 mg/kg/injection, schedule: Q01DX010 (ip), vehicle: saline): 6 of 6 | survivor count (dose: 60.0 mg/kg/injection, schedule: Q01DX Z (ip), vehicle: carboxymethylcellulose (CMC)): 6 of 6

CCN(CC)C(=S)S
survivor count (dose: 250.0 mg/kg/injection, schedule: Q01DX Z (ip), vehicle: other): 3 of 6 | survivor count (dose: 500.0 mg/kg/injection, schedule: Q01DX Z (ip), vehicle: other): 5 of 6 | T/C (dose: 1000.0 mg/kg/injection, schedule: Q01DX Z (ip), vehicle: other): 125 % of control | survivor count (dose: 2000.0 mg/kg/injection, schedule: Q01DX Z (ip), vehicle: other): 2 of 6

CCN(CC)CCNc1ccc(C)c2sc3ccccc3c(=O)c12
survivor count (dose: 100.0 mg/kg/injection, schedule: Q01DX010 (ip), vehicle: saline): 6 of 6 | survivor count (dose: 200.0 mg/kg/injection, schedule: Q01DX010 (ip), vehicle: saline): 5 of 6 and 6 of 6

O=C(Nc1ccc(C2=NCCN2)cc1)c1cccc(C(=O)Nc2ccc(C3=NCCN3)cc2)c1
T/C (dose: 9.4 mg/kg/injection, schedule: Q01DX Z (ip), vehicle: carboxymethylcellulose (CMC)): 137 % of control | survivor count (dose: 150.0 mg/kg/injection, schedule: Q01DX Z (ip), vehicle: carboxymethylcellulose (CMC)): 4 of 6

CCCCn1cnc2c(=S)nc[nH]c21
T/C (dose: 128.0 mg/kg/injection, schedule: Q01DX010 (ip), vehicle: saline): 127 % of control | survivor count (dose: 200.0 mg/kg/injection, schedule: Q01DX Z (ip), vehicle: carboxymethylcellulose (CMC)): 6 of 6 | survivor count (dose: 400.0 mg/kg/injection, schedule: Q01DX Z (ip), vehicle: carboxymethylcellulose (CMC)): 0 of 6 | survivor count (dose: 800.0 mg/kg/injection, schedule: Q01DX Z (ip), vehicle: carboxymethylcellulose (CMC)): 0 of 6
